Each structure is given as a SMILES string. This is one part of the list. The main result of the screen is listed elsewhere. These columns were measured beside it and carry no call. Most of these compounds were active or inconclusive in the main read-out, so they are no random draw. The note in brackets gives the kind of curve behind each potency; many fits are weak.

A short description of this test: qHTS Assay for Modulators of Lamin A Splicing. Conditions: HeLa LMNA splicing GFP/RFP minigene ratio, 48 h. The method, boiled down:
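S3 HeLa stable clones carrying a lamin A-EGFP splicing minigene plus DsRed2 were seeded at 600 cells/well in Opti-MEM with 2% FBS, pin-dosed and incubated 48 h at 37°C. Acumen cytometry (488 nm) gave the GFP/RFP total-intensity ratio.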
(In general: In qHTS, concentration-response curves come from the screen itself.)

Setting [1] is: measured here: RFP viability control channel.
Where [2] appears, read: measured here: GFP splicing reporter channel.

As for `Cc1ccc(N2C(=O)c3ccccc3NC2C(C)Cc2ccc3c(c2)OCO3)cc1` (stereo unspecified), under setting [1], the AC50 is 35.5 µM [rising, single point]. Consider `Cc1ccc(C(=O)CC(SCC(=O)O)c2ccc([N+](=O)[O-])cc2)cc1` (stereo unspecified), for which the AC50 is 0.0891 µM [falling, full curve, poor fit] under setting [2] and 14.1 µM [falling, partial curve] under setting [1]. With `COc1ccc(CC(=O)NC(C)c2nnc(SCC(=O)Nc3ccccc3F)n2C)cc1` (stereo unspecified), under setting [2], the AC50 was 4.47 µM [rising, partial curve, poor fit].

For `O=C(Nc1ccc(Br)cc1)c1ccc(Br)c(S(=O)(=O)N2CCCCC2)c1`, the AC50 was 0.00355 µM [falling, full curve, poor fit] under setting [2] and 0.00501 µM [falling, full curve, poor fit] under setting [1]. As to `O=C(O)CCn1c(CO)nc2ccccc21`, the AC50 by setting is: under setting [2], 7.94 µM [rising, partial curve]; under setting [1], 14.1 µM [rising, partial curve]. As for `Cc1c(CCOC(=O)C23CC4CC(CC(C4)C2)C3)sc[n+]1Cc1ccccc1`, the AC50 is, setting by setting: under setting [2], 11.2 µM [rising, partial curve]; under setting [1], 22.4 µM [rising, partial curve]. Consider `O=C(/C=C/c1cccc([N+](=O)[O-])c1)NCCSCc1ccccc1Cl`, for which, under setting [1], the AC50 was 12.6 µM [rising, partial curve]. Take `CCOc1cc(C2C(C#N)=C(N)OC(C)=C2C(C)=O)c(Br)c(Br)c1OC(C)C` (stereo unspecified): the AC50 under setting [2] was 35.5 µM [falling, single point] and the AC50 under setting [1] was 31.6 µM [falling, single point].

Consider `CCN(CC)C(=O)Oc1ccc(Br)c2ccccc12`, for which the AC50 is, setting by setting: under setting [2], 35.5 µM [rising, single point]; under setting [1], 35.5 µM [rising, single point]. On to `Cn1c(=O)n(CCc2ccccc2)c(=O)c2c1ncn2Cc1ccccc1`, for which the AC50 under setting [2] is 22.4 µM [rising, single point].

Consider `COC(=O)c1c(C)[nH]c(C(=O)C(C)Sc2nnc(-c3cc(OC)c(OC)c(OC)c3)o2)c1C` (stereo unspecified), for which the AC50 under setting [1] was 12.6 µM [rising, single point]. Take `CCn1c(COc2ccccc2)nnc1SCC(=O)C(C)(C)C`: the AC50 under setting [1] was 17.8 µM [rising, single point]. Take `COc1ccc(N(CC(=O)N/N=C/c2ccc3c(c2)OCO3)S(=O)(=O)c2ccc(NC(C)=O)cc2)cc1`: under setting [2], the AC50 was 12.6 µM [falling, single point]. Turning to `COc1ccc2cc3cc(C(=O)NCCc4ccccc4)sc3nc2c1Cl`, the AC50 is 11.2 µM [falling, partial curve, poor fit] under setting [2] and 35.5 µM [falling, partial curve, poor fit] under setting [1]. On to `Cc1ccc(NC(=O)CCNC(=O)c2ccc([N+](=O)[O-])cc2)cc1S(=O)(=O)N(C)C`, for which, under setting [2], the AC50 was 0.316 µM [falling, full curve, poor fit]. On to `Cc1nc2cc(C(=O)NCc3ccc4c(c3)OCO4)ccc2n1-c1ccc(Br)cc1`, for which, under setting [1], the AC50 was 1.26 µM [rising, partial curve, poor fit]. For the compound `CC(C)n1c(O)c(N=Nc2ccccn2)c2ccccc21`, the AC50 under setting [1] is 3.16 µM [rising, full curve].

As for `CCOc1ccc(NC(=O)CSc2nc3cccnc3n2CC)cc1`, the AC50 under setting [1] was 35.5 µM [rising, partial curve, poor fit]. For `Cc1ccc(NC(=O)/C=C/c2ccc3c(c2)OCO3)cc1S(=O)(=O)N1CCOCC1`, the AC50 under setting [2] was 25.1 µM [rising, single point] and the AC50 under setting [1] is 15.8 µM [rising, partial curve]. For the compound `CCN1CCCc2cc(CN(CCN3CCOCC3)C(=S)Nc3ccccc3C)ccc21`, under setting [1], the AC50 is 0.00355 µM [falling, full curve, poor fit]. Regarding `Cc1ccc(S(=O)(=O)N2CCN(c3c([N+](=O)[O-])cc(C(F)(F)F)cc3[N+](=O)[O-])CC2)cc1`, the AC50 was 7.94 µM [rising, partial curve] under setting [2] and 12.6 µM [rising, partial curve] under setting [1]. As to `CN(c1ccc(OCC(=O)N2CCCCC2)cc1)S(=O)(=O)c1cccs1`, the AC50 runs as follows: under setting [2], 25.1 µM [rising, single point]; under setting [1], 25.1 µM [rising, single point]. `COc1ccc(C)cc1N(C(=O)COc1cccc(F)c1)c1nc2ccccc2s1`: the AC50 under setting [1] is 11.2 µM [rising, partial curve, poor fit]. Same read-out and setting: then `O=S(=O)(Nc1ccc(-c2ccc(N3CCCCCC3)nn2)cc1)c1ccc(C(F)(F)F)cc1`, with 2.82 µM [rising, partial curve, poor fit]. Take `Cc1cc(C)n(-c2ccc(C(=O)Nc3nnc(C)s3)cc2)n1`: the AC50 under setting [2] was 35.5 µM [rising, single point] and the AC50 under setting [1] was 31.6 µM [rising, single point]. For `Cc1ccc2c(c1)-c1onc(C(=O)N3CCN(c4cccc(C)c4C)CC3)c1CO2`, under setting [2], the AC50 was 11.2 µM [falling, single point].

Consider `Cc1cc(C(F)(F)F)c2c(N)c(C(=O)Nc3c(Cl)cccc3Cl)sc2n1`, for which the AC50 by setting is: under setting [2], 2.82 µM [rising, partial curve, poor fit]; under setting [1], 0.501 µM [rising, full curve, poor fit].

With `CCN(CCNC(=O)C1CCCN(Cc2nc(-c3ccc(OC)cc3)oc2C)C1)c1ccccc1` (stereo unspecified), the AC50 is, setting by setting: under setting [2], 12.6 µM [rising, partial curve]; under setting [1], 22.4 µM [rising, partial curve]. As to `COC(=O)N/N=C/c1ccc(/C=N/NC(=O)OC)cc1`, the AC50 is, setting by setting: under setting [2], 0.224 µM [falling, partial curve, poor fit]; under setting [1], 1.78 µM [falling, partial curve, poor fit]. For `Fc1ccc(NC(=S)N2CCCc3ccccc32)cc1`, the AC50 runs as follows: under setting [2], 15.8 µM [rising, single point]; under setting [1], 20 µM [rising, single point]. Consider `O=P1(c2ccccc2)C=Cn2c1cc1c2CCCC1` (stereo unspecified), for which the AC50 under setting [2] was 31.6 µM [rising, single point]. As for `Cc1nn(Cc2ccccc2Cl)c(C)c1NC(=O)CSc1n[nH]c(C)c1[N+](=O)[O-]`, the AC50 under setting [1] is 15.8 µM [rising, partial curve]. Regarding `O=[N+]([O-])c1ccc2c(c1)nc1n2CCN(CC2CCCO2)C1` (stereo unspecified), the AC50 under setting [2] was 17.8 µM [falling, partial curve, poor fit]. For the compound `CCc1ccc(OCC(=O)NCC(c2ccc(Cl)cc2)N2CCOCC2)cc1` (stereo unspecified), the AC50 was 3.16 µM [falling, full curve, poor fit] under setting [2] and 1.26 µM [falling, full curve, poor fit] under setting [1].

On to `Cc1cc(C)c(NC(=O)c2ccc(CN3CCc4ccccc4C3)cc2)c(C)c1`, for which the AC50 under setting [1] was 35.5 µM [rising, single point]. For the compound `CC(C)C(c1nnnn1Cc1ccco1)N1CCN(c2cccc(Cl)c2)CC1` (stereo unspecified), the AC50 was 31.6 µM [rising, single point] under setting [2] and 35.5 µM [rising, single point] under setting [1]. For the compound `COc1ccc(N2CCc3c(C)nc(SC)nc32)cc1`, the AC50 under setting [1] was 5.62 µM [rising, single point]. For the compound `Cc1cccc(NC(=O)CSc2nc3ccccc3c3nc(CCn4cncc4C)nn23)c1`, the AC50 under setting [2] was 1.58 µM [falling, partial curve, poor fit].

For the compound `Nc1cc(Cl)ccc1N1CCCCCC1`, the AC50 was 11.2 µM [falling, partial curve] under setting [2] and 35.5 µM [falling, single point] under setting [1].

Regarding `CCn1ncc(C2=NOC(C(=O)NCc3ccc(OC)cc3)C2)c1C` (stereo unspecified), the AC50 reads like this: under setting [2], 35.5 µM [rising, single point]; under setting [1], 31.6 µM [rising, single point]. As to `CC(C)Oc1ccc(CNC(=O)C2CCN(C(=O)N3CCOc4ccc(Cl)cc43)CC2)cc1`, the AC50 under setting [1] is 22.4 µM [rising, single point].

With `CCOC(=O)C1(Nc2nccs2)Sc2ccccc2NC1=O` (stereo unspecified), the AC50 under setting [1] was 0.1 µM [rising, single point]. As for `O=C(CNC(=O)c1ccccc1)N/N=C/c1cc(Br)ccc1O`, under setting [1], the AC50 was 14.1 µM [rising, single point]. Consider `CCOc1ccc(Cc2nc(N)nc(N)n2)cc1`, for which the AC50 under setting [1] was 35.5 µM [rising, single point]. Regarding `O=C(Nc1ccc(NC(=S)NC(=O)c2cccs2)cc1)c1ccco1`, the AC50 under setting [2] was 14.1 µM [falling, single point] and the AC50 under setting [1] was 10 µM [falling, partial curve]. `Cc1ccccc1Cn1c(=N)n(CC(=O)c2ccc([N+](=O)[O-])cc2)c2ccccc21`: the AC50 under setting [1] was 0.0501 µM [rising, full curve, poor fit].

For `CC(=O)Nc1cc(C(=O)NCCN2CCN(Cc3ccccc3)CC2)ccc1Sc1ccc(C)cc1`, the AC50 by setting is: under setting [2], 1.12 µM [falling, partial curve]; under setting [1], 1.41 µM [falling, partial curve]. In the case of `O=[N+]([O-])c1cc(S(=O)(=O)C(F)(F)F)ccc1Sc1nc2ccccc2[nH]1`, the AC50 reads like this: under setting [2], 3.55 µM [falling, partial curve, poor fit]; under setting [1], 25.1 µM [falling, single point]. Turning to `Cc1cccc(N(Cc2ccc(Cl)cc2)S(C)(=O)=O)c1`, the AC50 under setting [2] is 0.794 µM [rising, full curve, poor fit].

In the case of `Cc1cccc(NC(=S)NNC(=O)c2csc(C(C)C)c2)c1`, under setting [1], the AC50 was 35.5 µM [rising, single point].

Consider `Cc1cc2nnc(SCC(=O)NCc3cccs3)n2c2ccccc12`, for which the AC50 under setting [1] was 4.47 µM [rising, full curve].

Regarding `O=C(CSc1nc2ccc(Cl)cc2[nH]1)NCCc1ccc(Cl)cc1`, the AC50 is, setting by setting: under setting [2], 12.6 µM [rising, single point]; under setting [1], 22.4 µM [rising, single point].

For `COc1cccc(C2CN(c3ccc(F)cc3F)N=C2c2cccs2)c1OC` (stereo unspecified), the AC50 under setting [1] was 22.4 µM [rising, single point].

For orientation: AC50 means the midpoint of the concentration-response curve, whichever way the signal moves.
